Measurements as given in paper doi:10.1101/413948.
These are yes or no findings as the source states them, for the method shown. Binding seen in cells or lysates may run through a third protein. Some binding calls cover weakened binding; strength is not graded here.

Experiments:
[1] = biological target: T1, ATG9A (human (endogenous in HUVEC)) (UniProt Q7Z3C6); assay: co-IP
T1 sequence: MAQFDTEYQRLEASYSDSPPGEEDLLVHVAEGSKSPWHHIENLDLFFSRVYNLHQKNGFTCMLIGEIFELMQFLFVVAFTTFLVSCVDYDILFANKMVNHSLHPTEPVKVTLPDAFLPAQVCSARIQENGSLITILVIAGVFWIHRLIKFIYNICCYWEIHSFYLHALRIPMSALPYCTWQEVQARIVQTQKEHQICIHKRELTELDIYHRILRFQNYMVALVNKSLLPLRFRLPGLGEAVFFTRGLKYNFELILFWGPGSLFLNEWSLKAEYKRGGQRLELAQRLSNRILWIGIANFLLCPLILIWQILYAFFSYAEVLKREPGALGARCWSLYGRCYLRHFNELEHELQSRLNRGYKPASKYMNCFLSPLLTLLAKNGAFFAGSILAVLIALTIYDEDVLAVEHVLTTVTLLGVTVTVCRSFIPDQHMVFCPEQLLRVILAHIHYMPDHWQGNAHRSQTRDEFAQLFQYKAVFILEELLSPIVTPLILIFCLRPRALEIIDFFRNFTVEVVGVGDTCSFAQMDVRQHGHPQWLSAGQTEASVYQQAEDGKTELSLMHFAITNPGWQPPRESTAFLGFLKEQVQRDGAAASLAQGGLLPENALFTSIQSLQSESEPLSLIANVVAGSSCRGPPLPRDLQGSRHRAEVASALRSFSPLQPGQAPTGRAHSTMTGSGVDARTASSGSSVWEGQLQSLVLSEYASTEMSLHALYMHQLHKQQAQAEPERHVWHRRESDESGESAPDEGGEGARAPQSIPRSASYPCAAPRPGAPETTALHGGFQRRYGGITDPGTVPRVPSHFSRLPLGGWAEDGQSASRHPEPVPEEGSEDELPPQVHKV

[2] = biological target: p62, also referred to as sequestosome 1 (SQSTM1) (human (endogenous in HUVEC)) (UniProt Q13501); assay: co-IP

B1: hyaluronan synthase 2 (enzyme, UniProt Q92819 1-552)
chain: MHCERFLCILRIIGTTLFGVSLLLGITAAYIVGYQFIQTDNYYFSFGLYGAFLASHLIIQSLFAFLEHRKMKKSLETPIKLNKTVALCIAAYQEDPDYLRKCLQSVKRLTYPGIKVVMVIDGNSEDDLYMMDIFSEVMGRDKSATYIWKNNFHEKGPGETDESHKESSQHVTQLVLSNKSICIMQKWGGKREVMYTAFRALGRSVDYVQVCDSDTMLDPASSVEMVKVLEEDPMVGGVGGDVQILNKYDSWISFLSSVRYWMAFNIERACQSYFGCVQCISGPLGMYRNSLLHEFVEDWYNQEFMGNQCSFGDDRHLTNRVLSLGYATKYTARSKCLTETPIEYLRWLNQQTRWSKSYFREWLYNAMWFHKHHLWMTYEAIITGFFPFFLIATVIQLFYRGKIWNILLFLLTVQLVGLIKSSFASCLRGNIVMVFMSLYSVLYMSSLLPAKMFAIATINKAGWGTSGRKTIVVNFIGLIPVSVWFTILLGGVIFTIYKESKRPFSESKQTVLIVGTLLYACYWVMLLTLYVVLINKCGRRKKGQQYDMVLDV
[1]
  binding: binds
[2]
  binding: no binding
